# Some of the results follow.
# How the values were obtained:
# Test in all cases: glycan array binding signal (z-score within array); higher = stronger binding
# Conditions in all cases: glycan notation: IUPAC condensed, linker removed
# [1] = target: Gal(b1-4)GlcNAc(b1-2)Man(a1-3)[Gal(b1-4)GlcNAc(b1-2)Man(a1-6)]Man(b1-4)GlcNAc(b1-4)[Fuc(a1-6)]GlcNAc
# Procedure, shortened: (§1)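 The Consortium for Functional Glycomics database supplied 3228 glycan arrays, of which those lacking an available protein sequence were dropped. The binding signal, a within-array Z-score, was averaged across arrays of the same protein sequence and across linkers. Negative scores can be read as non-binding.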
# [2] = target: Gal(b1-4)GlcNAc(b1-2)Man(a1-3)[Gal(b1-4)GlcNAc(b1-2)Man(a1-6)][Gal(b1-4)GlcNAc(b1-4)]Man(b1-4)GlcNAc(b1-4)[Fuc(a1-6)]GlcNAc
# Procedure, shortened: as §1
# [3] = target: Gal(b1-4)GlcNAc(b1-2)Man(a1-3)[Gal(b1-4)GlcNAc(b1-2)Man(a1-6)][GlcNAc(b1-4)]Man(b1-4)GlcNAc(b1-4)[Fuc(a1-6)]GlcNAc
# Procedure, shortened: as §1
# [4] = target: Gal(b1-4)GlcNAc(b1-2)Man(a1-3)[GlcNAc(b1-2)Man(a1-6)]Man(b1-4)GlcNAc(b1-4)GlcNAc
# Procedure, shortened: as §1
# [5] = target: Gal(b1-4)GlcNAc(b1-2)Man(a1-3)[GlcNAc(b1-4)][Gal(b1-4)GlcNAc(b1-2)Man(a1-6)]Man(b1-4)GlcNAc(b1-4)GlcNAc
# Procedure, shortened: as §1
# [6] = target: Gal(b1-4)GlcNAc(b1-2)Man(a1-3)[Man(a1-6)]Man(b1-4)GlcNAc(b1-4)GlcNAc
# Procedure, shortened: as §1
# [7] = target: Gal(b1-4)GlcNAc(b1-2)Man(a1-6)Man(b1-4)GlcNAc(b1-4)GlcNAc
# Procedure, shortened: as §1
# [8] = target: Gal(b1-4)GlcNAc(b1-2)Man(a1-6)[GlcNAc(b1-2)Man(a1-3)]Man(b1-4)GlcNAc(b1-4)GlcNAc
# Procedure, shortened: as §1
# [9] = target: Gal(b1-4)GlcNAc(b1-2)Man(a1-6)[Man(a1-3)]Man(b1-4)GlcNAc(b1-4)GlcNAc
# Procedure, shortened: as §1
# [10] = target: Gal(b1-4)GlcNAc(b1-2)[Gal(b1-4)GlcNAc(b1-4)]Man(a1-3)[Gal(b1-4)GlcNAc(b1-2)Man(a1-6)]Man(b1-4)GlcNAc(b1-4)GlcNAc
# Procedure, shortened: as §1
# [11] = target: Gal(b1-4)GlcNAc(b1-2)[Gal(b1-4)GlcNAc(b1-4)]Man(a1-3)[Gal(b1-4)GlcNAc(b1-2)[Gal(b1-4)GlcNAc(b1-6)]Man(a1-6)]Man(b1-4)GlcNAc(b1-4)GlcNAc
# Procedure, shortened: as §1
# [12] = target: Gal(b1-4)GlcNAc(b1-2)[Gal(b1-4)GlcNAc(b1-4)]Man(a1-3)[GlcNAc(b1-4)][Gal(b1-4)GlcNAc(b1-2)Man(a1-6)]Man(b1-4)GlcNAc(b1-4)GlcNAc
# Procedure, shortened: as §1
# [13] = target: Gal(b1-4)GlcNAc(b1-2)[Gal(b1-4)GlcNAc(b1-4)]Man(a1-3)[GlcNAc(b1-4)][Gal(b1-4)GlcNAc(b1-2)[Gal(b1-4)GlcNAc(b1-6)]Man(a1-6)]Man(b1-4)GlcNAc(b1-4)GlcNAc
# Procedure, shortened: as §1
# [14] = target: Gal(b1-4)GlcNAc(b1-2)[Gal(b1-4)GlcNAc(b1-6)]Man(a1-6)[Gal(b1-4)GlcNAc(b1-2)Man(a1-3)]Man(b1-4)GlcNAc(b1-4)GlcNAc
# Procedure, shortened: as §1
# [15] = target: Gal(b1-4)GlcNAc(b1-2)[Gal(b1-4)GlcNAc(b1-6)]Man(a1-6)[Gal(b1-4)GlcNAc(b1-2)Man(a1-3)]Man(b1-4)GlcNAc(b1-4)[Fuc(a1-6)]GlcNAc
# Procedure, shortened: as §1
# [16] = target: Gal(b1-4)GlcNAc(b1-2)[Gal(b1-4)GlcNAc(b1-6)]Man(a1-6)[GlcNAc(b1-4)][Gal(b1-4)GlcNAc(b1-2)Man(a1-3)]Man(b1-4)GlcNAc(b1-4)GlcNAc
# Procedure, shortened: as §1
# [17] = target: Gal(b1-4)GlcNAc(b1-2)[Gal(b1-4)GlcNAc(b1-6)]Man(a1-6)[GlcNAc(b1-4)][Gal(b1-4)GlcNAc(b1-2)[Gal(b1-4)GlcNAc(b1-4)]Man(a1-3)]Man(b1-4)GlcNAc(b1-4)[Fuc(a1-6)]GlcNAc
# Procedure, shortened: as §1
# [18] = target: Gal(b1-4)GlcNAc(b1-3)Gal(b1-3)GalNAc
# Procedure, shortened: as §1
# [19] = target: Gal(b1-4)GlcNAc(b1-3)Gal(b1-3)GlcNAc
# Procedure, shortened: as §1
binder,measurement,setting,value
TAL6-4LysM (Trichoderma atroviride) (protein) AADSIPSISPTGIITPTPTQSGMVSNCNKFYDVHSNDGCSAIASSQHVDLSSLYKWNPAIKTDCSGLQASVYVCIGILTTSMSTTSKLPTTTSKPSTTSKPPTGITTPTPTQSGMVKNCNKFYDVHSGDGCSAIASSQKVNLSSFYLWNPAVKTDCSGLQASVFVCIGTLTTSMSTTTSKLPTTTSKPSTTSKPPTGIITPTPTQNGMVKNCNKFYDVHSGDGCSAIASSQKVNLSSFYLWNPAVKTDCSGLQASVFVCVGTATTTTAAGITTPTPTQSGMVSGCNKFYDVHAGDGCSAIASSQKIALSSLYKWNPAVKTDCSGLQASVYICIGVGNAAAARVTGALEQKLISEEDLNSAVDHHHHHH,glycan array binding signal (z-score),[1],0.685
same,glycan array binding signal (z-score),[2],-0.638
same,glycan array binding signal (z-score),[3],-0.903
same,glycan array binding signal (z-score),[4],0.96
same,glycan array binding signal (z-score),[5],-0.532
same,glycan array binding signal (z-score),[6],0.206
same,glycan array binding signal (z-score),[7],1.1
same,glycan array binding signal (z-score),[8],0.194
same,glycan array binding signal (z-score),[9],-0.256
same,glycan array binding signal (z-score),[10],3.53
same,glycan array binding signal (z-score),[11],-1.01
same,glycan array binding signal (z-score),[12],-0.088
same,glycan array binding signal (z-score),[13],-0.822
same,glycan array binding signal (z-score),[14],-0.699
same,glycan array binding signal (z-score),[15],0.291
same,glycan array binding signal (z-score),[16],-1.06
same,glycan array binding signal (z-score),[17],-0.429
same,glycan array binding signal (z-score),[18],-0.484
same,glycan array binding signal (z-score),[19],-0.823

# Some of the entries above in another layout.
binder	measurement	setting	value
TAL6-4LysM (Trichoderma atroviride) (protein) AADSIPSISPTGIITPTPTQSGMVSNCNKFYDVHSNDGCSAIASSQHVDLSSLYKWNPAIKTDCSGLQASVYVCIGILTTSMSTTSKLPTTTSKPSTTSKPPTGITTPTPTQSGMVKNCNKFYDVHSGDGCSAIASSQKVNLSSFYLWNPAVKTDCSGLQASVFVCIGTLTTSMSTTTSKLPTTTSKPSTTSKPPTGIITPTPTQNGMVKNCNKFYDVHSGDGCSAIASSQKVNLSSFYLWNPAVKTDCSGLQASVFVCVGTATTTTAAGITTPTPTQSGMVSGCNKFYDVHAGDGCSAIASSQKIALSSLYKWNPAVKTDCSGLQASVYICIGVGNAAAARVTGALEQKLISEEDLNSAVDHHHHHH	glycan array binding signal (z-score)	[11]	-1.01
same	glycan array binding signal (z-score)	[12]	-0.088
